Measurements from PMC4470285, “A cell cycle-controlled redox switch regulates the topoisomerase IV activity” (Genes & Development, 2015).
No constants are given. Whether binding was seen depends on the method and setting. A result given as binding can be weak or reduced; the word gives no strength. For some assays here: In cells and extracts the contact can be indirect.

Chains of the proteins cited; added tags and fusions are not shown. Lines headed by an entry give the natural chain unless they say otherwise; changes in a name come on top.
UniProt A0A0H3C9E0: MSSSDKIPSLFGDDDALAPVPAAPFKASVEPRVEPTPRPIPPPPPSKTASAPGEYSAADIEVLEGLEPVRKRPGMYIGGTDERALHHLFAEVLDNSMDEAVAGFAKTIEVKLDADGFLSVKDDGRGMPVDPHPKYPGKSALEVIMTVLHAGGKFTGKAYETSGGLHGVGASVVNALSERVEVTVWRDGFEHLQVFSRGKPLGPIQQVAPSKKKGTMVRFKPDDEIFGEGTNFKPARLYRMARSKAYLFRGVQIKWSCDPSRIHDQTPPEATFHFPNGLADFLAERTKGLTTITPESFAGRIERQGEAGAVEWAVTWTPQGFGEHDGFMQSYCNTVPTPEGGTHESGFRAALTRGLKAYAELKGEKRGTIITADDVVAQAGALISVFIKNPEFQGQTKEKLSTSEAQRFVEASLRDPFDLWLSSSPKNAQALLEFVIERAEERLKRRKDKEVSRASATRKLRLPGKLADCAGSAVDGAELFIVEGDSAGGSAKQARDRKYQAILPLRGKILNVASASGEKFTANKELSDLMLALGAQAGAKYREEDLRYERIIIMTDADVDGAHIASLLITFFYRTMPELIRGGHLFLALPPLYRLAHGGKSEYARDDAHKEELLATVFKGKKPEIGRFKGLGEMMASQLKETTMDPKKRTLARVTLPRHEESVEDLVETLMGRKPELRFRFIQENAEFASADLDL
UniProt A0A0H3CC90: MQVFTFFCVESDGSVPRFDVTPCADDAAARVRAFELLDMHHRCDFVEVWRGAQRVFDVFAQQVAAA

How the values were obtained:
[1] = molecular target: NstA-TAP (C. crescentus); assay: pull-down; in vivo copurification: tandem affinity purification of TAP-tagged NstA from extracts of C. crescentus cells harboring parC-gfp or gfp-parE; immunoblot with anti-GFP; empty vector as control
[2] = molecular target: purified ParC (C. crescentus); assay: far-Western, overlay or dot blot; blot containing 0.1 nM ParC, ParE or BSA incubated with 25 nM purified His6-SUMO-NstA and probed with monoclonal hexa-histidine antibody; both purified

binding [1] | Substance | binding [2]
binds | GFP-ParE (from UniProt A0A0H3C9E0) | 
 | His6-SUMO-NstA (from UniProt A0A0H3CC90) | binds
